Values from PubChem BioAssay AID602196 (INSERM, 2012)
Purpose: 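Modifiers of cisplatin sensitivity in A549 cells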. Cells: human A549 lung cancer cells. Knock-down reagent: siRNA pair against human genes. Duration: 48 h transfection before cisplatin; time from cisplatin to read-out not stated. Treatment: cisplatin at a dose killing half of control-siRNA cells; exact dose and duration not given. Read-out: 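Cisplatin cell death as a shift from the 50% death seen with control siRNA; siRNAs toxic or growth-blocking alone scored 0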. Direction: two-siRNA summed score (-2 to +2): higher = both siRNAs protect from cisplatin killing; -2 means both sensitise; mean protection from cisplatin (shift in death) and protection from cisplatin (shift in death), siRNA C: higher = protection from cisplatin killing. Call rule: 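Each siRNA scores 0 if harmful alone by LDH or WST-1, otherwise +1 if it reduces and -1 if it increases cisplatin killing; a gene is active when both siRNAs agree (sum +2 or -2)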. Meaning of the calls: active = both siRNAs shift cisplatin killing the same way; inactive = no consistent shift, or siRNA harmful alone.
Shown is an unselected part of about 23,000 reagents. Of all reagents, 455 (2%) got an active call. 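Active includes both protection and sensitisation; some change values fall well beyond the stated -50 to +50 range.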 Further read-outs or replicates are left out here. Reagent sequences are not shown. Not given: the amount of reagent.

Target gene,two-siRNA summed score (-2 to +2),mean protection from cisplatin (shift in death) (%),"protection from cisplatin (shift in death), siRNA C (%)",outcome
AAK1 (AP2 associated kinase 1),0,0.1,-0.4,inactive
LOC116412,0,12,18.7,inactive
LINC00671 (long independently transcribed non-coding RNA 671),0,14.1,9.1,inactive
FOXD2 (forkhead box D2),1,20.6,35.2,inactive
SLC51B (SLC51 subunit beta),0,-3.2,-2.8,inactive
DAW1 (dynein assembly factor with WD repeats 1),1,9.7,17.9,inactive
PPP2R5B (protein phosphatase 2 regulatory subunit B'beta),1,23.7,18.8,inactive
RIGI (RNA sensor RIG-I),0,9.1,6.4,inactive
LOC388929,0,3.4,-0.9,inactive

Continued; the last 3 above are carried over.
Target gene,two-siRNA summed score (-2 to +2),mean protection from cisplatin (shift in death) (%),"protection from cisplatin (shift in death), siRNA C (%)",outcome
PPP2R5B (protein phosphatase 2 regulatory subunit B'beta),1,23.7,18.8,inactive
RIGI (RNA sensor RIG-I),0,9.1,6.4,inactive
LOC388929,0,3.4,-0.9,inactive
IGSF9B (immunoglobulin superfamily member 9B),0,6.7,5.1,inactive
THUMPD3 (THUMP domain 3 tRNA guanosine methyltransferase),0,4.7,14.1,inactive
RIPK4 (receptor interacting serine/threonine kinase 4),2,19.8,23.8,active
LOC440526,1,10.8,-6.2,inactive
LOC440458,0,12.3,14.1,inactive
CPSF6 (cleavage and polyadenylation specific factor 6),-1,-4.1,-7.5,inactive
SDSL (serine dehydratase like),0,3.5,10.2,inactive
SGO2 (shugoshin 2),0,1.2,0.5,inactive
LOXL4 (lysyl oxidase like 4),0,-12.6,-11.4,inactive
GRIN2C (glutamate ionotropic receptor NMDA type subunit 2C),0,-3,-7.5,inactive
SSTR5-AS1 (SSTR5 antisense RNA 1),0,-6.1,-10,inactive
FARSA (phenylalanyl-tRNA synthetase subunit alpha),0,-5.1,-16.2,inactive
LPAR3 (lysophosphatidic acid receptor 3),0,-1.4,17.3,inactive
"PROZ (protein Z, vitamin K dependent plasma glycoprotein)",-1,-12.9,5.2,inactive
